These results are taken from publication PMC7819943, “Rice protein-binding microarrays: a tool to detect cis-acting elements near promoter regions in rice”.

This is one part of the list.

The experiment deals with T1, OsSMF1 (Oryza sativa, UniProt Q6ZLB0 1-436).
T1 sequence: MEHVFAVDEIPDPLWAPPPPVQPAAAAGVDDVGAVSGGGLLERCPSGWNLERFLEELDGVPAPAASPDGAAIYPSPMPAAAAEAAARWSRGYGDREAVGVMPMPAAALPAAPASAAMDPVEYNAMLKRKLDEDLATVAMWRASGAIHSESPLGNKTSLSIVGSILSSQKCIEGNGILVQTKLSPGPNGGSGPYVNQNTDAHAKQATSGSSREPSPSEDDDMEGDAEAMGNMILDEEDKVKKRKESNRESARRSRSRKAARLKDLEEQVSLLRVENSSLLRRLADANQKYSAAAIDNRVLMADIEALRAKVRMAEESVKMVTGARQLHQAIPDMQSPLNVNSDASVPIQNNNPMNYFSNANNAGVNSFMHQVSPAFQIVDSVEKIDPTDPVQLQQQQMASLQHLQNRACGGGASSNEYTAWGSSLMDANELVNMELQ
Put plainly: protein-binding microarray (RPBM); PBS, 2% BSA, 51.3 ng/ul salmon testes DNA, 50 uM zinc acetate, 200 nM TF, 25 C, 1 h; high values mean tight binding. To be noted: protein: recombinant; tags: N-terminal polyhistidine and DsRed monomer fusion (pET32a); chain copies: 2; label: CyDye5-dUTP incorporated in the synthesized complementary strand; 3' TTTTT single-stranded linker to array surface; dsDNA, one strand shown. Put shortly:
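Transcription factors, each fused N-terminally to a polyhistidine tag and DsRed, were expressed in E. coli BL21-CodonPlus and purified on Ni–NTA. A custom Agilent array was made double-stranded by primer extension with Cy5-dUTP and blocked with 2% BSA. It was incubated with 200 nM protein in PBS, 2% BSA, salmon testes DNA and 50 µM zinc acetate at 25 °C for 1 h, then washed. The binding signal is per-feature fluorescence intensity (arbitrary units) read on an Axon 4000B scanner.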
Regarding “TTGTGTGCTCCACATCACTCCAAACCCTCTGTCCCAATCACGGAGTCACCTAGTGCAG”, the binding signal was 7950 fluorescence intensity (a.u.).

Consider “CAAACTTCTTAGCGCACCACGTCGCCGTCAAGCGAGCGCTCGGAGTCACCTAGTGCAG”, for which the binding signal is 3480 fluorescence intensity (a.u.).

As for “TCCTCTTCCCCAGACCCTGTCACGTCGGTACGGGTTGTCGCGGAGTCACCTAGTGCAG”, the binding signal is 3760 fluorescence intensity (a.u.).

Regarding “ACCTACCCTGTGGTTTCCAGCCAAGCATACACGCATGCCACGGAGTCACCTAGTGCAG”, the binding signal was 4140 fluorescence intensity (a.u.).

On to “TGTGCCATTGTCACTGACATGTGGGCCGCGCGCGGCGCACCGGAGTCACCTAGTGCAG”, for which the binding signal is 3340 fluorescence intensity (a.u.).

For the sequence “TCGAGTGAGATATAGCAAAATCGGGTTGAAAATGACATCACGGAGTCACCTAGTGCAG”, the binding signal is 3220 fluorescence intensity (a.u.).

Regarding “ACCCGAAGACCAACCTATCTACGAGACCAACCACCAAATCCGGAGTCACCTAGTGCAG”, the binding signal was 37900 fluorescence intensity (a.u.).

With “CGTGCCTACGCAGCGCCGCGCCGCACAGCCTAGCCTACGTCGGAGTCACCTAGTGCAG”, the binding signal is 5090 fluorescence intensity (a.u.).

Take “ATCGGTCCCCGAGGGAGGTTCAGGCCACCGTCTTCGGCTTCGGAGTCACCTAGTGCAG”: the binding signal is 3180 fluorescence intensity (a.u.).

Regarding “AATGTTTCATCACATCACTGAGGAGGACCGTGCGATGTTTCGGAGTCACCTAGTGCAG”, the binding signal is 3770 fluorescence intensity (a.u.).

Consider “CTACTCCTTCTGCTCCTGCTGACTATCGTGCTCCACCTTTCGGAGTCACCTAGTGCAG”, for which the binding signal was 3870 fluorescence intensity (a.u.).

In the case of “ATTCAATCCACGTTGGTTTTATGGGCCGTCTCACCGTGACCGGAGTCACCTAGTGCAG”, the binding signal is 6480 fluorescence intensity (a.u.).

With “GCTGTGGGTAGGCCGGCGCCGCCGGCCGACGGGTGGGGAGCGGAGTCACCTAGTGCAG”, the binding signal is 3980 fluorescence intensity (a.u.).

With “CTGGCGTATCAGTAGCCATGTCATATGTGTAAAGTGTTTGCGGAGTCACCTAGTGCAG”, the binding signal is 4560 fluorescence intensity (a.u.).

Turning to “TAGGATCCAAGCCATGCATCTCTATTTATACACCTGCTCGCGGAGTCACCTAGTGCAG”, the binding signal is 3160 fluorescence intensity (a.u.).

Turning to “AATGTTGAATGTTTGAGGTGTTACAGCATTTGACTCATGCCGGAGTCACCTAGTGCAG”, the binding signal was 4200 fluorescence intensity (a.u.).

On to “AGCTACGCCCACGCGAGCCGCGCACCCACGCGTGGGTACACGGAGTCACCTAGTGCAG”, for which the binding signal is 4100 fluorescence intensity (a.u.).

Consider “AATTATTGAGGCTAACCTTTTGTACATGTCAGCTCATCTCCGGAGTCACCTAGTGCAG”, for which the binding signal was 5280 fluorescence intensity (a.u.).

“ATCACCTCCTGTACACATCATCTGAACCAGCCAGCAGGCACGGAGTCACCTAGTGCAG”: the binding signal is 5390 fluorescence intensity (a.u.).

“GCTCTAATCATTGATGACATATATAAGCTTGACTTGGTCACGGAGTCACCTAGTGCAG”: the binding signal was 4370 fluorescence intensity (a.u.).

On to “AATCCTTGTTCTCCCTGACGTGTTTTAGGATGTGATGGCCCGGAGTCACCTAGTGCAG”, for which the binding signal was 7310 fluorescence intensity (a.u.).

As to “GCGGAAAGGGAAAGGCCCGACGAATGGGAGGAATCATATACGGAGTCACCTAGTGCAG”, the binding signal was 40300 fluorescence intensity (a.u.).

Turning to “CTACGACCGGCTGCCTCGTCACGCCGGCATCTGTCGCTCTCGGAGTCACCTAGTGCAG”, the binding signal is 9820 fluorescence intensity (a.u.).

“TTGACAGCTTAAGAAAGCACGCGTCACCACTATGAGATTGCGGAGTCACCTAGTGCAG”: the binding signal is 5300 fluorescence intensity (a.u.).

“GTATGTGTGTCATGCTCTTTCAGCAGCATCAGCAATCAAACGGAGTCACCTAGTGCAG”: the binding signal is 4430 fluorescence intensity (a.u.).

As for “GAAGTTCATACTGTAGCAATTAGATGCCAGTATGCCACCGCGGAGTCACCTAGTGCAG”, the binding signal was 3530 fluorescence intensity (a.u.).

In the case of “TTGTGGAGTCATGTAGTAGTACACCATCAATGTGGCACACCGGAGTCACCTAGTGCAG”, the binding signal was 5170 fluorescence intensity (a.u.).

Regarding “CATGTACTAGTAGTCTAGTAGTACAACTCATCAGAAAAGGCGGAGTCACCTAGTGCAG”, the binding signal was 3180 fluorescence intensity (a.u.).

Take “GGTATTTCCTTAACATACAAGTTTGGAATTTAACCCAAGTCGGAGTCACCTAGTGCAG”: the binding signal was 24500 fluorescence intensity (a.u.).

Regarding “ACCACTATCACACAGTGGGATCGCTTACGTCATATACTTTCGGAGTCACCTAGTGCAG”, the binding signal was 10700 fluorescence intensity (a.u.).

For the sequence “ATATCATAAACACATGTGGATCCACATGTCATTGAGATAGCGGAGTCACCTAGTGCAG”, the binding signal is 5360 fluorescence intensity (a.u.).

As for “AACAAACCATTCCTAGTACACTCCTCGGCACACGTGCGCGCGGAGTCACCTAGTGCAG”, the binding signal was 3470 fluorescence intensity (a.u.).

Consider “ACACTATACATAGTTTCCATAAACTCCACATCATCAAGAACGGAGTCACCTAGTGCAG”, for which the binding signal was 5590 fluorescence intensity (a.u.).

As to “CAGACGCGGCACGGTACGTGCACAGATAGTTCGCCGACGACGGAGTCACCTAGTGCAG”, the binding signal was 3310 fluorescence intensity (a.u.).

In the case of “GCTCACCTCCAAAGCCGCGTTCCTGTCACTCGGCCACACTCGGAGTCACCTAGTGCAG”, the binding signal is 3720 fluorescence intensity (a.u.).

With “GTGTTGTTTTACCTGTATAATGTTGTGTATGCTCATATATCGGAGTCACCTAGTGCAG”, the binding signal is 4000 fluorescence intensity (a.u.).

As to “TGGTGGTGGAAATTTTGGAAATCGTGAGGGCTACACATACCGGAGTCACCTAGTGCAG”, the binding signal is 3550 fluorescence intensity (a.u.).

“TCCTCTTCCTACAGAGGACAGGGATGACAGCAACCTTACTCGGAGTCACCTAGTGCAG”: the binding signal was 3150 fluorescence intensity (a.u.).

With “GTGAACACAATTCACCAGCATCATCAACATGACGTCCCTGCGGAGTCACCTAGTGCAG”, the binding signal was 3980 fluorescence intensity (a.u.).

Consider “TATAGTGGCAACGCATGCTGACGTTACGGTGTACCGCCGTCGGAGTCACCTAGTGCAG”, for which the binding signal was 5900 fluorescence intensity (a.u.).

Regarding “GGAATGTGGAAGTGATAGAAACCGGATAAGCACATTTTCTCGGAGTCACCTAGTGCAG”, the binding signal is 31600 fluorescence intensity (a.u.).

Turning to “AGCGCCATGCTAAATGGCGCTGACATGTCCAAACTCAGCGCGGAGTCACCTAGTGCAG”, the binding signal is 8240 fluorescence intensity (a.u.).
